{"sequences": {"note": "The chains behind the UniProt entries cited, without tags or fusion partners. Where a name states a change or a piece, a line headed by the entry shows the natural chain unless it says otherwise.", "UniProt P18054": "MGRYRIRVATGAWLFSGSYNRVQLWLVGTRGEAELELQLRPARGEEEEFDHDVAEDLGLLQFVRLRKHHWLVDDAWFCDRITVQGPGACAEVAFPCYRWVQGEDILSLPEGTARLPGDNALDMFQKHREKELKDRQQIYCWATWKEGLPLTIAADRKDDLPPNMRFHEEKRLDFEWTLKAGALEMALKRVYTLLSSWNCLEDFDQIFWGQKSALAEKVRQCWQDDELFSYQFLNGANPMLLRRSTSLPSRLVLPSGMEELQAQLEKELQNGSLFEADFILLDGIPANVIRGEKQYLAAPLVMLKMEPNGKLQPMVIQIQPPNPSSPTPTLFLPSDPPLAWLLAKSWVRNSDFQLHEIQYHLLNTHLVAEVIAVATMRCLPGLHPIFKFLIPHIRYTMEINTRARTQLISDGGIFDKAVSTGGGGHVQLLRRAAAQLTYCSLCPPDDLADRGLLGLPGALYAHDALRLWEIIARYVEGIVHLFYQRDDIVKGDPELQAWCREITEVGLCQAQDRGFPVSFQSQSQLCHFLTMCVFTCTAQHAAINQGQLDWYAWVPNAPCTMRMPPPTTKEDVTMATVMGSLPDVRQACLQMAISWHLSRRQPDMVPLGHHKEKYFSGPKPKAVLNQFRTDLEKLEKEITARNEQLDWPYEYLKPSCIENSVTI"}, "source": "PubChem BioAssay AID1671190", "about": "(National Center for Advancing Translational Sciences (NCATS), 2021)", "note": "Out of some 580,000 compounds screened, about 6,100 (1.1%) were called active. The shares of active, inactive and inconclusive entries below differ from those in the screen. Calls follow the shape of the dose curve; as a rule, active = well fitted inhibition curve with a large enough effect; inconclusive = small, poorly fitted or top-dose-only effect, or another doubt; inactive = no such curve, though single readings can be large or run the other way. Potencies beside an inconclusive call are fits to weak or partial responses and may not hold up. % is scaled to controls: 0 for no effect and ±100 for the full control effect; potency is read from the fitted curve at half-maximal effect.", "data": [{"biological_target": "Polyunsaturated fatty acid lipoxygenase ALOX12 (Homo sapiens) (UniProt P18054)", "assay": "Primary qHTS assay for inhibitors of human arachidonate 12S-lipoxygenase (ALOX12): Round 2", "conditions": "purified 12hLO, xylenol orange hydroperoxide absorbance; activity change, negative = inhibition: at 108 µM (top of the series) unless noted", "outline": "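Purified human 12hLO (150 nM final) in 25 mM Hepes, 0.01% Triton X-100, pH 7.0 was preincubated 15 min at room temperature with compound. Then 40 uM arachidonic acid was added, 30 min. Hydroperoxide was read by Fe-XO absorbance ratio 573/405 nm.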", "values": [{"smiles": "COCCN(C(=O)c1csnn1)C(C(=O)NC1CCCCC1)c1sccc1C", "note": "(stereo unspecified)", "Potency": "inconclusive: 50.1 µM [inhibitor, partial curve, poor fit]"}, {"smiles": "Cc1ccc(S(=O)(=O)N(C)Cc2nc(-c3ccccc3)oc2C)cc1", "activity change, negative = inhibition": "inconclusive: -35.9% [inhibitor]"}, {"smiles": "CCC(Oc1ccccc1)C(=O)N1CCC(C(N)=O)CC1", "note": "(stereo unspecified)", "Potency": "inactive"}, {"smiles": "N#Cc1c(Nc2ccccc2C(F)(F)F)s[nH]c1=O", "Potency": "inconclusive: 35.5 µM [inhibitor, partial curve, poor fit]"}, {"smiles": "O=[N+]([O-])c1ccc(NC(=S)N2CCc3ccccc32)cc1", "Potency": "inactive"}, {"smiles": "CCOc1ccccc1Oc1coc2cc(OC(=O)c3ccc4c(c3)OCO4)ccc2c1=O", "Potency": "inconclusive: 31.6 µM [inhibitor, single point]"}, {"smiles": "Cc1ccc(N2C(=O)N(CC(=O)NC(c3ccccc3)c3ccccc3)C(=O)C2C)cc1", "note": "(stereo unspecified)", "Potency": "inconclusive: 14.1 µM [inhibitor, partial curve, poor fit]"}, {"smiles": "COc1ccc(-c2cc(C(=O)NN)n(-c3ccccc3)n2)cc1", "Potency": "inactive"}, {"smiles": "O=C(O)CCCN1C(=O)/C(=C\\c2ccc(-c3nc4ccccc4s3)o2)SC1=S", "Potency": "active: 39.8 µM"}, {"smiles": "O=C(CCCOc1ccc(Cl)cc1Cl)Nc1ccccn1", "Potency": "inconclusive: 35.5 µM [inhibitor, partial curve, poor fit]"}, {"smiles": "CN(C)CC(C)(C)CNC(=S)NCc1ccc2c(c1)OCO2", "Potency": "inconclusive: 14.1 µM [inhibitor, partial curve, poor fit]"}, {"smiles": "CC(C)c1ccccc1NC(=O)COc1ccc(C(=O)NCCc2ccccc2)cc1", "Potency": "inactive"}, {"smiles": "CSc1nnc(-c2cccs2)n1C", "Potency": "inconclusive: 141 µM [inhibitor, single point]"}, {"smiles": "CCOC(=O)c1cc(-c2ccccc2)sc1NC(=S)Nc1cccc(C)n1", "Potency": "active: 20 µM"}, {"smiles": "FC(F)(F)c1cccc(C2=NOC3(CCN(Cc4ccncc4)CC3)C2)c1", "Potency": "inactive"}, {"smiles": "CCC1(c2ccccc2)NC(=O)N(CC(=O)Nc2cc(Cl)ccc2N2CCOCC2)C1=O", "note": "(stereo unspecified)", "Potency": "inconclusive: 56.2 µM [inhibitor, partial curve, poor fit]"}, {"smiles": "CCOC(=O)CNC(=O)CSc1nc(Cc2cccs2)nc2ccccc12", "Potency": "inactive"}, {"smiles": "CN(Cc1nc2c(N)nc(N)nc2[nH]c1=O)c1ccc(C(=O)NC(CCC(=O)O)C(=O)O)cc1", "note": "(stereo unspecified)", "Potency": "inconclusive: 2.51 µM [inhibitor, partial curve, poor fit]"}, {"smiles": "CCCN(C(=O)CSCc1ccc(C)cc1)c1c(N)n(Cc2ccccc2)c(=O)[nH]c1=O", "Potency": "inconclusive: 44.7 µM [inhibitor, partial curve, poor fit]"}, {"smiles": "COc1ccc(-n2c(COc3cccc(C)c3)n[nH]c2=S)cc1", "Potency": "active: 8.91 µM"}, {"smiles": "CCOc1cc(/C=C/C(=O)c2ccc(OC)c(Br)c2)ccc1OC", "Potency": "inconclusive: 89.1 µM [inhibitor, partial curve, poor fit]"}, {"smiles": "COc1ccc(Nc2cc(C)c3cc(NC(=O)Cc4ccc(Cl)cc4)ccc3n2)cc1", "Potency": "inconclusive: 50.1 µM [inhibitor, partial curve, poor fit]"}, {"smiles": "Cc1ccc(NC(=S)NC2CCCC2)cc1C", "Potency": "inconclusive: 56.2 µM [inhibitor, partial curve, poor fit]"}, {"smiles": "COc1ccc(CNCc2c(C(=O)O)c(C)n(Cc3ccccc3C)c2C)c(OC)c1", "Potency": "inconclusive: 126 µM [inhibitor, partial curve, poor fit]"}, {"smiles": "O=c1c2cnc(N3CCCCC3)nc2ccn1-c1ccc(F)cc1", "Potency": "inactive"}, {"smiles": "CCOC(=O)C1=C(C)NC(C)=C(C(=O)OC)C1c1cccc([N+](=O)[O-])c1", "note": "(stereo unspecified)", "Potency": "inactive"}, {"smiles": "Cc1nnc(NC(=O)CSc2nccn2Cc2ccc(Cl)cc2)s1", "Potency": "inconclusive: 112 µM [inhibitor, single point]"}, {"smiles": "Cc1cccc(COCC(Cc2ccccc2)N2CCN(C(=O)c3ccc(Cl)c(Cl)c3)CCC2=O)c1", "note": "(stereo unspecified)", "Potency": "inactive"}, {"smiles": "Cc1ccc(C)c(-n2nnnc2SCC(=O)Nc2ccc3nccnc3c2)c1", "Potency": "inconclusive: 39.8 µM [inhibitor, partial curve, poor fit]"}, {"smiles": "COc1cc(C(=O)Nc2ccc(C)c(S(=O)(=O)N3CCCCCC3)c2)cc(OC)c1OC", "Potency": "inactive"}, {"smiles": "CCCCn1c(CCC(=O)Nc2ccccc2C)nc2c1c(=O)[nH]c(=O)n2CCC", "Potency": "inconclusive: 63.1 µM [inhibitor, single point]"}, {"smiles": "CCN(CC)Cc1ccccn1", "Potency": "inconclusive: 44.7 µM [inhibitor, partial curve, poor fit]"}, {"smiles": "CCN(Cc1ccccc1)C(=O)c1cc(S(=O)(=O)N2CCOCC2)ccc1N1CCCC1", "Potency": "inconclusive: 4.47 µM [inhibitor, full curve, poor fit]"}, {"smiles": "COC(=O)C1=NN(c2ccc(Cl)cc2)C2C(=O)N(c3ccccc3OC)C(=O)C12", "note": "(stereo unspecified)", "Potency": "inconclusive: 44.7 µM [inhibitor, partial curve, poor fit]"}, {"smiles": "Cc1cc(=O)n(CC(=O)Nc2cccc(C(F)(F)F)c2)c(N2CCN(c3ccccc3)CC2)n1", "Potency": "inactive"}, {"smiles": "COC(=O)c1sc(=S)sc1C(=O)OC", "Potency": "active: 44.7 µM"}, {"smiles": "Cc1nc2nc(NC(=O)CC(C)C)[nH]n2c(=O)c1Cc1ccccc1", "Potency": "inconclusive: 44.7 µM [inhibitor, partial curve, poor fit]"}, {"smiles": "CCCNC(=O)NC(=O)CN1CCCN(Cc2ccc(C#N)cc2)CC1", "Potency": "inconclusive: 89.1 µM [inhibitor, partial curve, poor fit]"}, {"smiles": "O=C(NNc1ncnc2ccccc12)c1cccc(Cl)c1", "Potency": "inconclusive: 22.4 µM [inhibitor, partial curve, poor fit]"}, {"smiles": "Cc1cccc(NNC(=S)Nc2c(C)cccc2C)c1", "Potency": "inconclusive: 44.7 µM [inhibitor, partial curve, poor fit]"}, {"smiles": "O=C(NCC1CCCO1)Nc1c(NC2CCCCC2)c2ccccc2oc1=O", "note": "(stereo unspecified)", "Potency": "inconclusive: 100 µM [inhibitor, partial curve, poor fit]"}, {"smiles": "CCS(=O)(=O)c1ncc(Cl)c(C(=O)Nc2c(C(=O)Nc3cccc(C)c3)oc3ccccc23)n1", "Potency": "inactive"}, {"smiles": "Cc1ccc(C(=O)/C=C/N(C)C)o1", "Potency": "inconclusive: 100 µM [inhibitor, partial curve, poor fit]"}, {"smiles": "COc1ccc(CCn2c(CCCOc3ccc(Cl)cc3Cl)n[nH]c2=S)cc1OC", "Potency": "inconclusive: 20 µM [inhibitor, full curve]"}, {"smiles": "COc1ccc(N(C(=O)CCl)C(C(=O)NC2CCCCC2)c2cccnc2)cc1", "note": "(stereo unspecified)", "Potency": "inconclusive: 11.2 µM [inhibitor, full curve, poor fit]"}, {"smiles": "O=C(NC1=NCCS1)c1cccc(N2C(=O)c3ccccc3C2=O)c1", "Potency": "inactive"}, {"smiles": "N#Cc1ccc(CN2CCC3(CC2)CNc2ccccc2[S+](=O)([O-])N3)cc1", "Potency": "inconclusive: 50.1 µM [inhibitor, partial curve]"}, {"smiles": "O=C1CSC(c2cccc(Br)c2)N1c1cccc(C(F)(F)F)c1", "note": "(stereo unspecified)", "Potency": "inconclusive: 1.41 µM [inhibitor, full curve, poor fit]"}, {"smiles": "CCC(C)Sc1cccc(-c2nc3ccccn3c2NCc2ccccc2)c1", "note": "(stereo unspecified)", "Potency": "inconclusive: 112 µM [inhibitor, single point]"}, {"smiles": "CC(C)(C)NC(=O)C(c1ccc(-c2ccccc2)cc1)n1c(=O)c(-c2ccco2)nc2ccccc21", "note": "(stereo unspecified)", "Potency": "active: 39.8 µM"}, {"smiles": "Cc1ccc(C(CNC(=O)c2oc3ccc(F)cc3c2C)N(C)C)o1", "note": "(stereo unspecified)", "Potency": "inconclusive: 35.5 µM [inhibitor, partial curve]"}, {"smiles": "CC(=O)N1CCN(Cc2ccc(Br)s2)CC1", "Potency": "inconclusive: 8.91 µM [inhibitor, full curve, poor fit]"}, {"smiles": "CC(C)c1ccc(C2NC(C(=O)O)CS2)cc1", "note": "(stereo unspecified)", "Potency": "inconclusive: 0.447 µM [inhibitor, full curve, poor fit]"}, {"smiles": "COc1ccc(Cn2c(C(C)C)nc3sc4ccccc4c(=O)c3c2=O)cc1", "Potency": "inactive"}, {"smiles": "CCC(C)(NC(=O)CNC(C)=O)C(=O)NC1CCCCC1", "note": "(stereo unspecified)", "Potency": "inconclusive: 39.8 µM [inhibitor, partial curve, poor fit]"}, {"smiles": "COc1ccc(CNC(=O)c2ccccc2OC(F)F)cc1C(=O)O", "Potency": "inconclusive: 112 µM [inhibitor, single point]"}, {"smiles": "O=S(Cc1ccc(Cl)cc1)c1ccccc1", "note": "(stereo unspecified)", "Potency": "inactive"}, {"smiles": "CCc1cc(=O)oc2cc(OS(=O)(=O)c3cccc(C(F)(F)F)c3)ccc12", "Potency": "inconclusive: 56.2 µM [inhibitor, single point]"}, {"smiles": "COc1cccc(CNc2nc(NCC3CC3)nc3ccsc23)c1OC", "Potency": "inconclusive: 44.7 µM [inhibitor, partial curve, poor fit]"}, {"smiles": "CCc1sc(C(=O)Nc2ccccc2N2CCOCC2)cc1C", "Potency": "inactive"}, {"smiles": "COc1ccc(S(=O)(=O)Nc2ccc(Nc3cc(N4CCCC4)nc(C)n3)cc2)cc1C", "Potency": "inconclusive: 89.1 µM [inhibitor, partial curve, poor fit]"}, {"smiles": "CCNC(=O)N(C)C[C@H]1N[C@@](Cc2ccccc2)(C(=O)OC)[C@H]2C(=O)N(C)C(=O)[C@@H]12", "Potency": "inconclusive: 31.6 µM [inhibitor, partial curve]"}, {"smiles": "CCCCS(=O)CC(COc1ccc(Cl)cc1)OC(=O)c1ccccc1", "note": "(stereo unspecified)", "Potency": "inconclusive: 50.1 µM [inhibitor, partial curve, poor fit]"}, {"smiles": "O=c1c(C(c2ccccc2)c2c(O)sc3ccccc3c2=O)c(O)sc2ccccc12", "Potency": "inconclusive: 50.1 µM [inhibitor, partial curve, poor fit]"}, {"smiles": "COc1cc(Cl)c(C)cc1NC(=O)Cn1ncc2c1-c1cc(C)ccc1OC2", "Potency": "inconclusive: 112 µM [inhibitor, single point]"}, {"smiles": "CC1CCCCN1S(=O)(=O)c1ccc(S(=O)(=O)N2CCN(c3ccccc3)CC2)cc1", "note": "(stereo unspecified)", "Potency": "inactive"}]}]}
